The chains behind the UniProt entries cited, without tags or fusion partners.
UniProt P18054, whole entry, looked up: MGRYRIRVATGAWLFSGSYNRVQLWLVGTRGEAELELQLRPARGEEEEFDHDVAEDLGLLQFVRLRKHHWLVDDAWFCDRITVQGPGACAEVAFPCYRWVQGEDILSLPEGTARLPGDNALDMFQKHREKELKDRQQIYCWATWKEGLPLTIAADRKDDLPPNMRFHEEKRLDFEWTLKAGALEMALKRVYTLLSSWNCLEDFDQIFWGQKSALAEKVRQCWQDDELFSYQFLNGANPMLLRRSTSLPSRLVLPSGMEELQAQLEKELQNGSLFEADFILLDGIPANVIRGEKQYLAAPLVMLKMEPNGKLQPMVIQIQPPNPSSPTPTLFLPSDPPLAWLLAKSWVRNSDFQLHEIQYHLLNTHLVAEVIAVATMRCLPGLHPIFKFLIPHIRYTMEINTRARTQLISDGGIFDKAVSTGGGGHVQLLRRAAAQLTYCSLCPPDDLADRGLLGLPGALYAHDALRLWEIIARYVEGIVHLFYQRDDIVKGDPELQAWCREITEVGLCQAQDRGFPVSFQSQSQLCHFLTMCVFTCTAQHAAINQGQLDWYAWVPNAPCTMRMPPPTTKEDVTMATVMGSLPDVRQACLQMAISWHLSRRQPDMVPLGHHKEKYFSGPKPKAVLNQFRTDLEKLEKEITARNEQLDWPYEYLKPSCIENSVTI

“And” between values parts separate entries of the source, which are not always exact repeats. Equal entries are not always repeated. The campaign covered roughly 580,000 compounds. About 6,100 (1.1%) were called active. This list was built around the results that the source calls inconclusive (neither active nor inactive); the mix of calls is not that of the screen. The call rests on the fitted dose curve; in most records, active means well fitted inhibition curve with a large enough effect; inconclusive means small, poorly fitted or top-dose-only effect, or another doubt; inactive means no such curve, though single readings can be large or run the other way. Potencies of inconclusive entries are doubtful fits and often do not repeat.
These compounds were tested against Polyunsaturated fatty acid lipoxygenase ALOX12 (Homo sapiens) (UniProt P18054) (assay: Primary qHTS assay for inhibitors of human arachidonate 12S-lipoxygenase (ALOX12): Round 2). Settings: purified 12hLO, xylenol orange hydroperoxide absorbance; series mostly up to 108 µM.
Summary of the method: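 Purified human 12hLO at 150 nM in 25 mM Hepes, 0.01% Triton X-100, pH 7.0, preincubated 15 min at room temperature with compound. Reaction started with 40 uM arachidonic acid, 30 min at room temperature. Hydroperoxide measured by Fe-xylenol orange, 573/405 nm absorbance ratio.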
For `CCOC(=O)C(=O)N/N=C/c1ccco1`, the Potency was inconclusive: 5.62 µM [inhibitor, full curve, poor fit].
With `O=C(c1ccc(F)cc1)N1CCC(c2n[nH]c(=O)n2-c2ccccc2)CC1` the Potency was “inactive”.
`Cc1ncc(CO)c(/C=N/NC(=S)Nc2ccc(F)cc2)c1O` was tested, and the Potency was active: 39.8 µM.
For `CN(/C(=N\S(=O)(=O)c1ccccc1)C(F)(F)F)c1ccccc1`, the Potency was inconclusive: 44.7 µM [inhibitor, partial curve, poor fit].
`O=S(=O)(c1ccc(Cl)nc1)N1CCC(Cc2ccccc2)CC1` was tested, and the Potency was “inactive”.
For `Cc1ccsc1/C=C/c1ccc2ccccc2n1`, the Potency was inconclusive: 39.8 µM [inhibitor, partial curve, poor fit].
`N[C@@H](C(=O)O)c1ccc(C(=O)O)c(C(=O)O)c1` was tested, and the Potency was inconclusive: 4.47 µM [inhibitor, full curve, poor fit] and inconclusive: 35.5 µM [inhibitor, partial curve, poor fit] and inconclusive: 31.6 µM [inhibitor, single point].
With `Cn1c2ccccc2c(=O)c2ccc(NCc3ccc4c(c3)OCO4)cc21` the Potency was inconclusive: 141 µM [inhibitor, partial curve, poor fit].
For `CCN(CC)c1ccc2c(c1)OC(N)=C(C#N)C2c1cccnc1` (centres undefined), the Potency was inconclusive: 31.6 µM [inhibitor, partial curve, poor fit].
For `CC(C)(C)c1ccc(C(=O)NC(=S)Nc2nc3c(s2)CCCC3)cc1`, the Potency was active: 44.7 µM.
For `COC(=O)[C@]1(C)N[C@H](CN(C)C(=O)c2ccc(C(C)(C)C)cc2)[C@@H]2C(=O)N(Cc3ccccc3)C(=O)[C@@H]21`, the Potency was inconclusive: 50.1 µM [inhibitor, partial curve, poor fit].
For `S=c1nc(-c2ccccc2)[nH]n1-c1ccccc1`, the Potency was inconclusive: 28.2 µM [inhibitor, partial curve, poor fit].
In the case of `Cc1ccc(NC(=O)Cn2ccn(Cc3ccc(Cl)cc3)c(=O)c2=O)cc1C`, the Potency is reported as inconclusive: 79.4 µM [inhibitor, partial curve, poor fit].
In the case of `O=C(Nc1ccc(Cn2cccn2)cc1)c1ccc(COc2cccc(Br)c2)cc1`, the Potency is reported as inconclusive: 112 µM [inhibitor, partial curve, poor fit].
In the case of `CCN1C(=O)c2cccc3c(NS(=O)(=O)c4ccc(NC(C)=O)cc4)ccc1c23`, the Potency is reported as “inactive”.
In the case of `CC(NC(=O)c1cc2cc(F)ccc2[nH]1)c1cccc(F)c1` (centres undefined), the Potency is reported as inconclusive: 17.8 µM [inhibitor, partial curve].
For `Cc1c(F)cccc1NC(=O)N(C)CC1CCOCC1`, the Potency was “inactive”.
In the case of `O=C(Nc1cccc(-c2csc(Nc3cccc(C(F)(F)F)c3)n2)c1)c1ccccc1`, the Potency is reported as “inactive”.
In the case of `CC1CCCC(NC(=O)CCCc2cccs2)C1C` (centres undefined), the Potency is reported as inconclusive: 158 µM [inhibitor, single point].
With `Cn1cc(Cl)c(-c2n[nH]c(=S)n2-c2ccccc2)n1` the Potency was inconclusive: 56.2 µM [inhibitor, partial curve, poor fit].
With `Cc1ccc(-n2ncc3c(Nc4ccc5c(c4)OCCO5)ncnc32)cc1C` the Potency was “inactive”.
For `CCOC(=O)C1(C(C)(C)CC)CC(CSc2nc3ccccc3[nH]2)OC1=O` (centres undefined), the Potency was inconclusive: 39.8 µM [inhibitor, partial curve, poor fit].
With `Cc1cc(C(=O)N[C@@H]2CN(c3ncccn3)C[C@H]2CO)c(C)o1` the Potency was “inactive”.
With `CCN1c2cc(C(=O)Nc3cccc(C(=O)OC)c3)ccc2C(=O)N2CCCCCC21` (centres undefined) the Potency was “inactive”.
In the case of `O=C(NCc1cccc(Cl)c1)c1cccc(C(F)(F)F)c1`, the Potency is reported as “inactive”.
With `O=C(NC[C@H]1O[C@@H](CO)[C@@H](O)[C@H]1N1CCCCC1)Nc1ccccc1` the Potency was inconclusive: 17.8 µM [inhibitor, full curve].
With `Cc1ccc(NC(=S)NCCc2ccc(Cl)cc2)c(C)c1` the Potency was active: 35.5 µM.
`COc1ccc(CN2CCN(C/C=C/c3ccccc3)CC2)c(OC)c1OC` was tested, and the Potency was active: 0.562 µM.
In the case of `CN(C)c1ccc(C(=O)OCC(=O)NC2CCCCC2)cc1`, the Potency is reported as inconclusive: 63.1 µM [inhibitor, partial curve, poor fit].
For `COc1ccc(-c2noc(-c3ncn4c3COC(c3ccc(F)cc3)C4)n2)c(OC)c1` (centres undefined), the Potency was “inactive”.
For `Cc1ccc(Cn2c(C(C)Nc3nc(-c4ccc(Cl)cc4)cs3)nc3cc(C(=O)NCCCO)ccc32)cc1` (centres undefined), the Potency was inconclusive: 44.7 µM [inhibitor, partial curve, poor fit].
With `CSc1ccc(Cl)c(C(=O)Nc2ccc(F)c(F)c2)c1` the Potency was inconclusive: 17.8 µM [inhibitor, partial curve].
`c1cc(-c2nc(CC3CCNC3)no2)ccn1` (centres undefined) was tested, and the Potency was inconclusive: 7.08 µM [inhibitor, full curve].
For `COc1ccccc1OCC(=O)NC1CCSc2ccccc21` (centres undefined), the Potency was “inactive”.
For `O=C1NCCCCCCN(C(=O)CC2CCCCC2)[C@H]2C[C@H](c3nc(Cc4ccccc4)no3)C[C@@H]12`, the Potency was inconclusive: 31.6 µM [inhibitor, full curve].
With `COc1ccc(S(=O)(=O)NCc2ccccn2)cc1Cl` the Potency was inconclusive: 2.82 µM [inhibitor, full curve, poor fit].
`CCc1nnc(NC(=O)CCS(=O)(=O)Cc2ccccc2)s1` was tested, and the Potency was “inactive”.
In the case of `O=S(Cc1ccc(F)cc1)Cc1cccc(C(F)(F)F)c1` (centres undefined), the Potency is reported as “inactive”.
With `Cc1ccc(-n2cc3c(c2-c2ccccc2)c(=O)n(C)c(=O)n3C)c(C)c1` the Potency was inconclusive: 126 µM [inhibitor, single point].
`O=C1CCCC2=C1C(c1ccccc1)NC(=S)N2` (centres undefined) was tested, and the Potency was “inactive”.
In the case of `COc1ccc(CN[C@H]2CS(=O)(=O)C[C@@H]2S(=O)(=O)c2ccc(F)cc2)cc1OC`, the Potency is reported as “inactive”.
For `Cc1cccc2c(N=NC(=O)c3ccc(NS(=O)(=O)c4cccs4)cc3)c(O)[nH]c12`, the Potency was “inactive”.
`CC1(Oc2ccc(F)cc2)CCN(Cc2ccccc2OC(F)F)C1` (centres undefined) was tested, and the Potency was inconclusive: 89.1 µM [inhibitor, single point].
With `COc1cc(C(=O)N/C(=C\c2cn(C)c3ccccc23)C(=O)N2CCOCC2)cc(OC)c1OC` the Potency was inconclusive: 25.1 µM [inhibitor, partial curve].
In the case of `Cc1ccc(CCNC(=O)CN(C)S(=O)(=O)c2ccc3c(c2)n(C)c(=O)c(=O)n3C)cc1`, the Potency is reported as “inactive”.
In the case of `CC1CCCN(c2ccc(C(=O)NCc3ccc4c(c3)OCO4)cc2[N+](=O)[O-])C1` (centres undefined), the Potency is reported as “inactive”.
With `CC1=C[C@@H](CNC(=O)c2ccco2)[C@H](C(C)C)C[C@H]1CC(=O)NCc1ccccn1` the Potency was inconclusive: 35.5 µM [inhibitor, full curve].
For `O=C(Nc1ccc(CC(=O)N2CCOCC2)cc1)c1ccc(Cl)cc1`, the Potency was “inactive”.
For `CCc1nnc(NS(=O)(=O)c2ccc(NC(=S)NC(=O)/C=C/c3ccc(F)cc3)cc2)s1`, the Potency was active: 10 µM.
In the case of `Cc1cccc(NC(=S)NC2CCSc3ccccc32)c1` (centres undefined), the Potency is reported as inconclusive: 50.1 µM [inhibitor, partial curve, poor fit].
With `COc1ccc(NC(=O)c2cccc3c(Br)cccc23)cc1` the Potency was “inactive”.
For `Cc1cc(NC(=O)N(C)CC2CCOC2)ccc1Br` (centres undefined), the Potency was “inactive”.
For `CC1CCN(CCCNC(=O)c2ccc3c(=O)n(Cc4ccc(Cl)cc4)c(=S)[nH]c3c2)CC1`, the Potency was inconclusive: 50.1 µM [inhibitor, partial curve, poor fit].
`COC(=O)c1ccc(COC(=O)/C=C/c2ccc3c(c2)OCO3)o1` was tested, and the Potency was inconclusive: 39.8 µM [inhibitor, partial curve, poor fit].
`O=C(C(Sc1nnc(-c2ccncc2)n1-c1ccc(Cl)cc1)c1ccccc1)N1CCCC1` (centres undefined) was tested, and the Potency was “inactive”.
With `Cc1ccc(C(=O)c2oc3cc(NC(=O)c4ccco4)ccc3c2C)cc1` the Potency was inconclusive: 20 µM [inhibitor, full curve, poor fit].
For `CC(=O)N1CCC(N2C[C@H](O)C[C@H]2c2nc(-c3ccc(C(F)(F)F)cc3)no2)CC1`, the Potency was inconclusive: 25.1 µM [inhibitor, full curve].
With `Cc1cc(N2CCN(C)CC2)nc2ccc(NC(=O)CCC(=O)N3CCN(c4ccc([N+](=O)[O-])cc4)CC3)cc12` the Potency was “inactive”.
For `CC(=O)Nc1cnc(-c2ccc(O)cc2C)cn1`, the Potency was inconclusive: 100 µM [inhibitor, single point].
For `Cc1ccccc1NC(=O)c1ccc(NC(=O)N2CCSc3ncccc32)cc1`, the Potency was inconclusive: 50.1 µM [inhibitor, partial curve, poor fit].
`Clc1ccccc1-c1nc(CSc2nnc(C3COc4ccccc4O3)o2)no1` (centres undefined) was tested, and the Potency was “inactive”.
For `CC(C)(C)c1ccc(OCc2ccc(C(=O)N/N=C3\CC4CC=CC34)cc2)cc1` (centres undefined), the Potency was “inactive”.
`O=C(/C=C/c1ccccc1OCc1cccnc1)c1ccc(O)cc1` was tested, and the Potency was inconclusive: 35.5 µM [inhibitor, partial curve, poor fit].
For `Cc1ccnn1CC(=O)N1CCOc2c(cc(-c3csc4ccccc34)cc2OC2CCOC2)C1` (centres undefined), the Potency was inconclusive: 100 µM [inhibitor, single point].
For `N#C/C(C(=O)CCl)=C(/c1ccc(F)cc1)N1CCOCC1`, the Potency was active: 22.4 µM.
In the case of `COc1ccc(S(=O)(=O)N2CCCOC2CNC(=O)C(=O)NCCc2ccco2)cc1C` (centres undefined), the Potency is reported as “inactive”.
With `Cc1ccc(NC(=O)CSc2nc3cc([N+](=O)[O-])ccc3o2)cc1` the Potency was inconclusive: 100 µM [inhibitor, partial curve, poor fit].
`O=C(CN1C2CCC1CC(NC(=O)NC1CCCCC1)C2)NC1CC1` (centres undefined) was tested, and the Potency was inconclusive: 44.7 µM [inhibitor, single point].
`COc1ccccc1-c1cc(C(F)(F)F)nc(N2CCOCC2)n1` was tested, and the Potency was inconclusive: 141 µM [inhibitor, single point].

From PubChem BioAssay AID1671190 (National Center for Advancing Translational Sciences (NCATS), 2021)
Potency means the concentration at half of the fitted maximal effect.
